Values of other authors, collected in patent publication US20060029684A1, “Synergistic treatment of DNA viral infections” (Henderson Morley Research and Development Limited, priority 1999, published 2006).

System: plasma proteins, mainly albumin
Details: cited from earlier work

In the case of `NS(=O)(=O)c1cc(C(=O)O)c(NCc2ccco2)cc1Cl` [Frusemide, 4-chloro-N-furfuryl-5-sulfamoylanthranilic acid], the “bound to plasma proteins” value (plasma concentrations 1 to 400 mcg/ml, healthy individuals) is listed as 91-99% and the unbound fraction (therapeutic concentrations) is listed as 2.3-4.1%.
